Article PMC6180346, “Two Faces of CwlM, an Essential PknB Substrate, in Mycobacterium tuberculosis” (Cell Reports, 2018)
Results are given in words; binding and its absence hold for the method and conditions named. Binding can be weak; no strength is given.

Target: Rv0020c_FHA domain (M. tuberculosis)
Assay: NMR titration; 1H-15N HSQC at 800 MHz, 20°C, 80 μM 15N-labeled Rv0020c-FHA in 10 mM sodium phosphate pH 6.8, 100 mM NaCl, 1 mM Tris-HCl, 5% D2O, with 80 μM unlabeled peptide; both purified

| Binder | binding |
| --- | --- |
| NDRPTGTFTFAELLA (phosphothreonine at 382; N-terminal acetyl; C-terminal amide) [AC-NDRPT(phospho)…-NH2] | binds |
| NDRPTGTFTFAELLA (phosphothreonine at 386; N-terminal acetyl; C-terminal amide) [AC-…(phospho)FAELLA-NH2] | binds |
| NDRPTGTFTFAELLA (phosphothreonine at 382 and 386; N-terminal acetyl; C-terminal amide) [AC-NDRPT(phospo)GTFT(phospo)FAELLA-NH2] | binds |
| NDRPTGTFTFAELLA (N-terminal acetyl; C-terminal amide) [AC-…-NH2 peptide] | no binding (tested: 80 μM) |
